Measured values reported in the supplement of paper PMC11348887.
The list shows a part of the results. Small differences around the control level are noise.

Experiments:
Settings in all cases: 5 µM; treatment: days 7-14 after plating, readout day 21
[1] = test system: hPSC-derived cortical neurons (WA09); assay: nucleus area z-score vs screen plate; higher = larger nuclei (more mature)
[2] = test system: hPSC-derived cortical neurons (WA09); assay: total neurite length per nucleus (MAP2) z-score; higher = more neurite growth
[3] = test system: hPSC-derived cortical neurons (WA09); assay: nucleus roundness z-score vs screen plate; higher = rounder nuclei (more mature)
[4] = test system: hPSC-derived cortical neurons (WA09); assay: KCl-induced FOS+/EGR-1+ double-positive nuclei fraction z-score (KCl minus unstimulated); higher = stronger activity-induced IEG response

Q: Which nucleus area z-score [1] does the source give for `O=C(CSc1nc2c(c(=O)n1-c1ccccc1)SCC2)Nc1ccc(-c2ccccc2)cn1` here?
A: The nucleus area z-score was 2.45.

Q: What about the “total neurite length per nucleus (z-score)” value [2] of the same molecule?
A: Its value is 0.822.

Q: What about the nucleus roundness z-score [3] of the same molecule?
A: Its nucleus roundness z-score is 0.239.

Q: And the “KCl-induced FOS+/EGR-1+ double-positive nuclei fraction z-score” value [4]?
A: Its value is 0.267.

Q: Which results are given for `O=C(O)CC[C@H]1CC[C@@](c2cc(F)ccc2F)(S(=O)(=O)c2ccc(Cl)cc2)CC1`?
A: nucleus area z-score [1]: 1.36; total neurite length per nucleus (z-score) [2]: -0.42; nucleus roundness z-score [3]: -1.97; KCl-induced FOS+/EGR-1+ double-positive nuclei fraction z-score [4]: 0.465

Q: For `CCC(=O)O[C@]1(C(=O)CCl)[C@@H](C)C[C@H]2[C@@H]3CCC4=CC(=O)C=C[C@]4(C)[C@@]3(F)[C@@H](O)C[C@@]21C` [Clobetasol propionate], which nucleus area z-score [1] is on record?
A: The nucleus area z-score was 1.17.

Q: What about the “total neurite length per nucleus (z-score)” value [2] of the same molecule?
A: Its value is -1.37.

Q: What about the nucleus roundness z-score [3] of the same molecule?
A: Its nucleus roundness z-score is -1.42.

Q: What about the “KCl-induced FOS+/EGR-1+ double-positive nuclei fraction z-score” value [4] of the same molecule?
A: Its value is -1.29.
